Laboratory results as given in PMC11781186.
These are yes or no findings as the source states them, for the method shown. For part of these data: Binding seen in cells or lysates may run through a third protein. Some results given as binding are weak or reduced against the parent protein; the word gives no strength. One block for each substance: values may come before it.

By UniProt entry, the sequences of proteins in these tests, tags left out. Where a name states a change or a piece, a line headed by the entry shows the natural chain unless it says otherwise. Chains listed by the source or under a name are the forms on record and can include a tag or linker. Residues count along the entry.
ephrinA2 receptor (EphA2), endogenous (human (endogenous in HK1 and 5-8F)) (P29317, residues 24-976): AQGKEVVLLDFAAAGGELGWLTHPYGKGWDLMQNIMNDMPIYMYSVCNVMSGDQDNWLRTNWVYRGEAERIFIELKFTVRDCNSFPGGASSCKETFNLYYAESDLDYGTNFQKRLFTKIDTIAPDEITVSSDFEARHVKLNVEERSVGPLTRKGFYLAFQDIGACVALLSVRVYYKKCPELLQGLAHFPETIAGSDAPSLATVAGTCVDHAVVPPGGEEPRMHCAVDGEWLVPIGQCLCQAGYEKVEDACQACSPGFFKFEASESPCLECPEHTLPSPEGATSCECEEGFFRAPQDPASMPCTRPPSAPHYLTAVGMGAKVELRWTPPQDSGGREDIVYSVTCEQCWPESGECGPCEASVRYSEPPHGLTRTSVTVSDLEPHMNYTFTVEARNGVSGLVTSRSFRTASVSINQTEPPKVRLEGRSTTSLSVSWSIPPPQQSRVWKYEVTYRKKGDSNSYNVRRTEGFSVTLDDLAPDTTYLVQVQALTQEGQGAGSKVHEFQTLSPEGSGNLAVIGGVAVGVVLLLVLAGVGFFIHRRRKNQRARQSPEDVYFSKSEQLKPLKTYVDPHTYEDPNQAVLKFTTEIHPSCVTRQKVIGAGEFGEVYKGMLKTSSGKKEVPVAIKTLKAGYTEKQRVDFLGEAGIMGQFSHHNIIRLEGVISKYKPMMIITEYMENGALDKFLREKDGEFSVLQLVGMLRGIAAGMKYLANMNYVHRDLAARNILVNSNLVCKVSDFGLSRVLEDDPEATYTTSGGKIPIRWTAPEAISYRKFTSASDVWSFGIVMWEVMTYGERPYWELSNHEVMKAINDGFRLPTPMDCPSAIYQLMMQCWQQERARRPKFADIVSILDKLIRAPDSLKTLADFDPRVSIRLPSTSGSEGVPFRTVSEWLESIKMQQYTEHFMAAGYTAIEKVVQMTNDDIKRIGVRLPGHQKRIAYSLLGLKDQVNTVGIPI
kinase domain deletion (D606-906) EphA2 (P29317, form named): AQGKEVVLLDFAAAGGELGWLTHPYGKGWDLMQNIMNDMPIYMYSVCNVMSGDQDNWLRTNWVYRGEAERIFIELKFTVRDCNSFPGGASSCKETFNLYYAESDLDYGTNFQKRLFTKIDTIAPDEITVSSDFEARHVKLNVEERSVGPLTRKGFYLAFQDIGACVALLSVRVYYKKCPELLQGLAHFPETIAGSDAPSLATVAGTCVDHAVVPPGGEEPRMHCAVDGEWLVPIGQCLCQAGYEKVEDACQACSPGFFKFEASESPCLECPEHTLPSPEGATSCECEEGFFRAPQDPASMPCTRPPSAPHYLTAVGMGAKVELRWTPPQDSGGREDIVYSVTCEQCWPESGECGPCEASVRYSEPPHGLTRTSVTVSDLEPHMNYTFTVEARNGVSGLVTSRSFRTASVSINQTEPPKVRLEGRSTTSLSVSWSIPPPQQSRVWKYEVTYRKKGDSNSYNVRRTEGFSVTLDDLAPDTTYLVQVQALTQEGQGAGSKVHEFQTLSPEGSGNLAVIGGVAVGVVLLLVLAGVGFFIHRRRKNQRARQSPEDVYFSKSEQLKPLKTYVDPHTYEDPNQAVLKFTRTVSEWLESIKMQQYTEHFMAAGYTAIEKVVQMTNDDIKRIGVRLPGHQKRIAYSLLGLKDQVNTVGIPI
UniProt P45974: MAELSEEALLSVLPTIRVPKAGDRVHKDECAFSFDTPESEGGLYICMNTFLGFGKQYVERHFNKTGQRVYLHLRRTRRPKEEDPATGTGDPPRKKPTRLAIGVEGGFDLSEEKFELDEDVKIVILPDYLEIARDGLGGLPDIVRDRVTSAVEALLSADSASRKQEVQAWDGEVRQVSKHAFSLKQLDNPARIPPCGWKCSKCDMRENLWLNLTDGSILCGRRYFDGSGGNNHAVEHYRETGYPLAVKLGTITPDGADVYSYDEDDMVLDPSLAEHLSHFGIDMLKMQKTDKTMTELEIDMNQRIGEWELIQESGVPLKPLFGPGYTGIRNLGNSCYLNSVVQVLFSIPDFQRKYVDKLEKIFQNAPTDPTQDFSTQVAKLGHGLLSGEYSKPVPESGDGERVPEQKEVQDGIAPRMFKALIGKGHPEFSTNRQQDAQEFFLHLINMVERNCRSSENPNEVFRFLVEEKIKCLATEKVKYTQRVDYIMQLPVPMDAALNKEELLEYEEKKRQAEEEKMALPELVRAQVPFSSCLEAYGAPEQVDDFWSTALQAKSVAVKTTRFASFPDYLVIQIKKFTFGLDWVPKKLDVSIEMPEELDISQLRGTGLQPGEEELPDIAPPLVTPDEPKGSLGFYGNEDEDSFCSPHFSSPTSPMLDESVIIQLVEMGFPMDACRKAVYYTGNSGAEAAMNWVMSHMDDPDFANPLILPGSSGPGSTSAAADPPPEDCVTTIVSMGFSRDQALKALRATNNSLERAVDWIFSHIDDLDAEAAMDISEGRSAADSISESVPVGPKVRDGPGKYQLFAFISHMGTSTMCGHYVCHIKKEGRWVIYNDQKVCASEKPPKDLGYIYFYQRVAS
Flag-USP5 (wild type) (P45974-2, form named): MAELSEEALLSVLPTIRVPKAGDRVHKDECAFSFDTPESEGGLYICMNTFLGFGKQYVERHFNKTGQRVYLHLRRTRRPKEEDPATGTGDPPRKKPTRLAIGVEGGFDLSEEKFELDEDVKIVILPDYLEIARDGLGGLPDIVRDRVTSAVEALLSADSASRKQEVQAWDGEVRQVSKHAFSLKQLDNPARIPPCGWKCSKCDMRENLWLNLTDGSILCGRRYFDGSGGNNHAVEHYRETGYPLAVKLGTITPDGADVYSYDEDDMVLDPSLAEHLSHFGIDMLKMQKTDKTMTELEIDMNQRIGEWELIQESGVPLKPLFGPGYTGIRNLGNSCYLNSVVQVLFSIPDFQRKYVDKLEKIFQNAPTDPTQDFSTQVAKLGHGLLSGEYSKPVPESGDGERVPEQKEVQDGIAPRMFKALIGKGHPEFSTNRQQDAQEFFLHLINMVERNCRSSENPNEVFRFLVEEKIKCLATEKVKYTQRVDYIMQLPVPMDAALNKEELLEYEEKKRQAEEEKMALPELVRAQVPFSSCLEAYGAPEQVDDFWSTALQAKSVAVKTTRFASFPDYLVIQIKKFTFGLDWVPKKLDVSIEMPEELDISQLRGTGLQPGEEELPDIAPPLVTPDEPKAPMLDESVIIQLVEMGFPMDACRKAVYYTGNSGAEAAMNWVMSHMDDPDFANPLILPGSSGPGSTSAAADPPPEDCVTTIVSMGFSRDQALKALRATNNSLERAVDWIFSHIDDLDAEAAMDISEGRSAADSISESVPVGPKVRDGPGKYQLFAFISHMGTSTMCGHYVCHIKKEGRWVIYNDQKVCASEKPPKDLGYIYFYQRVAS

Legend:
[1] = target: kinase domain deletion (D606-906) EphA2 (UniProt P29317); experiment: co-IP; HEK293 cells co-transfected with USP5 and EphA2 expression plasmids (wild type or deletion mutants); whole cell lysates, Protein A/G-Sepharose 4B, overnight at 4°C, 5 washes with RIPA buffer, immunoblotting
[2] = target: GST tagged EphA2 protein (UniProt P29317); experiment: pull-down; purified His tagged USP5 mixed with purified GST or GST tagged EphA2 immobilized on glutathione beads; immunoblot with antibodies against GST or Histidine; both purified
[3] = target: ephrinA2 receptor (EphA2), endogenous (human (endogenous in HK1 and 5-8F)) (UniProt P29317); experiment: co-IP; endogenous proteins; whole cell lysates of HK1 and 5-8F NPC cells, Protein A/G-Sepharose 4B, overnight at 4°C, 5 washes with RIPA buffer, immunoblotting

binding [1]: no binding
Substance: Flag-USP5 (wild type) (from UniProt P45974-2 1-835) (enzyme)

binding [2]: binds
Substance: His tagged USP5 protein (from UniProt P45974 1-858) (enzyme)

binding [3]: binds
Substance: ubiquitin specific peptidase 5 (USP5), endogenous (from UniProt P45974 1-858) (enzyme)
